Data reported in patent US20040086863A1.
These are yes or no findings as the source states them, for the method shown. Binding seen in cells or lysates may run through a third protein. Some results given as binding are weak or reduced against the parent protein; the word gives no strength.

Chains of the proteins cited; added tags and fusions are not shown. Residues count along the entry.
UniProt P35570, residues 3-133: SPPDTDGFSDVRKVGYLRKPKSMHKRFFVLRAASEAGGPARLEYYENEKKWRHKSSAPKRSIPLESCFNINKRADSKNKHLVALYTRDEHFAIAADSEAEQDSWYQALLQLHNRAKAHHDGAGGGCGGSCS
UniProt P35568: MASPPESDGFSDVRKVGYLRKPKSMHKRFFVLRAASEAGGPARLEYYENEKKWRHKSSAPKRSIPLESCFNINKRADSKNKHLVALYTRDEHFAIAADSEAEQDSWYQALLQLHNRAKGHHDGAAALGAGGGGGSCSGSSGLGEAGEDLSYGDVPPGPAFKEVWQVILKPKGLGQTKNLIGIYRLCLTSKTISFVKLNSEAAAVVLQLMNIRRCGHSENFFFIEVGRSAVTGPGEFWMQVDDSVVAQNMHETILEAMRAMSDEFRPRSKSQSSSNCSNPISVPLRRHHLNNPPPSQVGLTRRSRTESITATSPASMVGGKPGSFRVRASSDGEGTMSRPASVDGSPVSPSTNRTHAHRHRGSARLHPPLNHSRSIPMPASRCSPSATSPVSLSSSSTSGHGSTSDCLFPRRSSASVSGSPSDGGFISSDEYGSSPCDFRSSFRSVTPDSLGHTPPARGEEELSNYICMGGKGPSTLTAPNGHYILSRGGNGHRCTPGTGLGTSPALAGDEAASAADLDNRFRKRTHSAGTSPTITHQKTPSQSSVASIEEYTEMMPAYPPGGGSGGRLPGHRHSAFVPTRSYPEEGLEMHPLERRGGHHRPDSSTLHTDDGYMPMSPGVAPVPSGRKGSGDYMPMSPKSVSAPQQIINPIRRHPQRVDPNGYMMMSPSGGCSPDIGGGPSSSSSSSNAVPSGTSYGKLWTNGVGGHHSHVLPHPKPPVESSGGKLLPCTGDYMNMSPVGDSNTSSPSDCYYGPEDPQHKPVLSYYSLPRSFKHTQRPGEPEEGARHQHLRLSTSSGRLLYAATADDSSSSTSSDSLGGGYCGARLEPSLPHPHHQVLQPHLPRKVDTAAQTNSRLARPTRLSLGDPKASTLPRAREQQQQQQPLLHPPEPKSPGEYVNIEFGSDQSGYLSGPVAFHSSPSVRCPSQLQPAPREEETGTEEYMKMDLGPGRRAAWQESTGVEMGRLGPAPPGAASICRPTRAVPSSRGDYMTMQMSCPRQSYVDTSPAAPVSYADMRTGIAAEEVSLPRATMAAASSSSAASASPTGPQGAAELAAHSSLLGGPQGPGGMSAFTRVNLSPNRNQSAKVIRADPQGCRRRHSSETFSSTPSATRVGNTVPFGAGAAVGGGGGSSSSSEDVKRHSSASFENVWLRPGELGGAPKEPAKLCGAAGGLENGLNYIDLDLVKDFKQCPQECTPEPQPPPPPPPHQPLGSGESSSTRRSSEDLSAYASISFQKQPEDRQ
UniProt P35569: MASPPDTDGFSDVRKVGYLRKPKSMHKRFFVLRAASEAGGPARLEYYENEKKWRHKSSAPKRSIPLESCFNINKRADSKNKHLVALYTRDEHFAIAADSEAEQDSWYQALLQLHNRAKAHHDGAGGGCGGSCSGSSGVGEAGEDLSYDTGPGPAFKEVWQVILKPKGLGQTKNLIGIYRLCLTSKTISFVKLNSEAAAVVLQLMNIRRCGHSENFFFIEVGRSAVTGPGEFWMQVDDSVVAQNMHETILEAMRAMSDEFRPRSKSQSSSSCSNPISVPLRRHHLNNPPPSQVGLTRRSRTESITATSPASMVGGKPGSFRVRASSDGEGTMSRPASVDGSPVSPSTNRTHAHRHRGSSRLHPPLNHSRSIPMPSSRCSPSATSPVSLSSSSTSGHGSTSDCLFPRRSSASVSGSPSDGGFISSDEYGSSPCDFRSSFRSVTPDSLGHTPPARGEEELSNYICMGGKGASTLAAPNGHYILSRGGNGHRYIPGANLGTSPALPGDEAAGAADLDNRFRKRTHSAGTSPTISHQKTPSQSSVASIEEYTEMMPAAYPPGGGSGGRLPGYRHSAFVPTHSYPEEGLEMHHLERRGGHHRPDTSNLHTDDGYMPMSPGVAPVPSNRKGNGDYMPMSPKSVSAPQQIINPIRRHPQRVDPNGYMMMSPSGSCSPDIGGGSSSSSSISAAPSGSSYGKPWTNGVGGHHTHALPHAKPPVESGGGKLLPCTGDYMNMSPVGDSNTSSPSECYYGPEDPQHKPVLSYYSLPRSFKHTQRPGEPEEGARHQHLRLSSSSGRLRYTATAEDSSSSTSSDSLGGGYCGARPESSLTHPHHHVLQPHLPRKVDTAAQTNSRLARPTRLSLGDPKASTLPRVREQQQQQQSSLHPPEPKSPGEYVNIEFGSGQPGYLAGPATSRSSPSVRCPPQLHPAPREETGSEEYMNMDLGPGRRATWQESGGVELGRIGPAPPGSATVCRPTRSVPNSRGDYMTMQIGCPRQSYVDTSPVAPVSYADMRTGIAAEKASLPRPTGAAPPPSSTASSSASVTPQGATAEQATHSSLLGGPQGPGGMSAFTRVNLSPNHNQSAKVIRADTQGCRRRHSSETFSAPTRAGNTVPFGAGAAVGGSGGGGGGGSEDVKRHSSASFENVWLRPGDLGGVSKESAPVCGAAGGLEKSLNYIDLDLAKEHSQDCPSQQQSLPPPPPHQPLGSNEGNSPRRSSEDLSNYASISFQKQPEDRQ

Key:
[1] = target: HA-tagged IRS-1 PH domain (PH^WT, IRS-1 residues 3-133) (rat) (UniProt P35570); test: GST pull-down from yeast lysates, anti-HA western blot
[2] = target: HA-tagged IRS-1 PH domain (PH^WT, IRS-1 residues 3-133) (rat) (UniProt P35570); test: GST pull-down from yeast lysates, anti-HA western blot (FIG. 2C)
[3] = target: IRS-1, endogenous in human kidney 293 cells (human) (UniProt P35568); test: co-immunoprecipitation from 293 cell extracts with antibodies to the PHIP PBR (FIG. 2F)
[4] = target: IRS-1, endogenous in NIH/IR cells (NIH3T3 cells overexpressing the insulin receptor) (mouse) (UniProt P35569); test: co-immunoprecipitation from NIH/IR lysates (FIG. 2E)
[5] = target: IRS-1, endogenous in NIH/IR cells (NIH3T3 cells overexpressing the insulin receptor) (mouse) (UniProt P35569); test: co-immunoprecipitation from NIH/IR lysates with anti-IRS-1 C-terminus antibodies

For “GST-PHIP fusion protein containing PHIP residues 8-209 (PBR) isolated from the yeast clone VP1.32 (from UniProt Q8VDD9 927-1128)”, the binding [1] was “binds” and the binding [2] was “binds”.

In the case of “human PHIP (hPHIP), endogenous in U266, A431 and 293 cells (from UniProt Q8WWQ0 924-1821)”, the binding [3] is reported as “binds”.

With “mouse PHIP (mPHIP), endogenous in NIH/IR and NIH/3T3 cells (from UniProt Q8VDD9 924-1821)” the binding [4] was “binds” and the binding [5] was “binds”.
